These are yes or no findings as the source states them, for the method shown. Binding seen in cells or lysates may run through a third protein. Some results given as binding are weak or reduced against the parent protein; the word gives no strength.

Sequences of proteins named here, by UniProt entry; tags and fusion partners are left off.
UniProt P55064: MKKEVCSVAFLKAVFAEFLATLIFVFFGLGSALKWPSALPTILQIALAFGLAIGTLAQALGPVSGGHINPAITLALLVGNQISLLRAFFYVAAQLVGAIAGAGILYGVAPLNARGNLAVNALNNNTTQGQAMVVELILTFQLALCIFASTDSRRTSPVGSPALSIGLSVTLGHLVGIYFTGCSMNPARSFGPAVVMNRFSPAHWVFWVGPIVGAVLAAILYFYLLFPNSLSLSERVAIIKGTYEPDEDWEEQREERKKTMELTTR

Experimental findings from paper PMC8391295 are described below.

In test [1] the target is T1, PIP (from the PIP-encoding plasmid, pEZ-M94 vector, GeneCopoeia) (human) (UniProt P12273).
T1 sequence: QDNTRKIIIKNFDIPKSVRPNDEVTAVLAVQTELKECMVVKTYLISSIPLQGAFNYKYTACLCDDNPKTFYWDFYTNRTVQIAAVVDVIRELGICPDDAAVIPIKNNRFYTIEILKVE
The test can be described thus: proximity ligation; Duolink PLA on co-transfected NS-SV-AC cells fixed with methanol 48 h post-transfection; mouse anti-HA-tag and rabbit anti-PIP.

Test [2] addresses T2, human PIP (endogenous, minor salivary glands) (human (endogenous in minor salivary glands)) (UniProt P12273).
T2 sequence: T1 sequence
The test can be described thus: proximity ligation; PLA on paraffin-embedded human minor salivary gland sections (SICCA-NS and SICCA-SS patients); rabbit anti-AQP5 and mouse anti-PIP.

Turning to HA-AQP5 (from UniProt P55064 1-265), the binding result in test [1] is on record as “binds”.

In the case of “human AQP5 (endogenous, minor salivary glands) (from UniProt P55064 1-265)”, in test [2], the binding result is listed as “binds”.
